Counter-ions that a name gives are not always drawn. ± gives the standard deviation of the averaged measurements. The list shows a part of the results. The data scatter; read single values as rough.

The experiment has as its system hAMSC donor 2. The experiment in a line: transfection efficiency (EGFP+ cells / Hoechst count) fold change vs vehicle control (ratio); hAMSC are human adipose-derived mesenchymal stem cells given an EGFP-luciferase plasmid by lipofection; higher = enhanced transfection. As to conditions: priming compound concentration 13 µM.
`CN(CCOc1ccc(CC2SC(=O)NC2=O)cc1)c1ccccn1` (stereo not drawn) [Rosiglitazone maleate]: the transfection efficiency turned out to be 1.17 ± 0.13.
As to `C[C@](N)(Cc1ccc(O)cc1)C(=O)O` [alpha-Methyl-L-tyrosine], the transfection efficiency was determined as 0.787 ± 0.12.
In the case of `COc1cc(OC)c(C(=O)CCCN2CCCC2)c(OC)c1` [Buflomedil hydrochloride], the transfection efficiency was found to be 1.32 ± 0.2.
In the case of `COCCOC(=O)C1=C(C)NC(C)=C(C(=O)OC(C)C)C1c1cccc([N+](=O)[O-])c1` (stereo not drawn) [Nimodipine], the transfection efficiency was 1.04 ± 0.11.
Take `O=C(CCCN1CC=C(n2c(=O)[nH]c3ccccc32)CC1)c1ccc(F)cc1` [Droperidol]: the transfection efficiency is 1.37 ± 0.24.
To `CN1[C@@H]2CC[C@H]1C[C@@H](OC(=O)c1c[nH]c3ccccc13)C2` [Tropisetron hydrochloride] belongs 1.18 ± 0.21; to `CN1[C@@H](CC(=O)c2ccccc2)CCC[C@H]1C[C@H](O)c1ccccc1` [Lobeline hydrochloride], 0.938 ± 0.31.
To `CN(C)CCCC1(c2ccc(F)cc2)OCc2cc(C#N)ccc21` (stereo not drawn) [Citalopram hydrobromide] belongs 0.871 ± 0.1; to `CN(C)CCc1c[nH]c2ccc(Cn3cncn3)cc12` [Rizatriptan benzoate], 1.02 ± 0.046.
For the molecule `Nc1ncn([C@@H]2O[C@H](CO)[C@@H](O)[C@H]2O)c(=O)n1` [5-Azacytidine], the transfection efficiency amounted to 1.21 ± 0.1.
Regarding `O=C(O)CCc1nc(-c2ccccc2)c(-c2ccccc2)o1` [Oxaprozin], the transfection efficiency was 1.15 ± 0.46.
Consider `CN1CC(=O)N2[C@H](c3ccc4c(c3)OCO4)c3[nH]c4ccccc4c3C[C@@H]2C1=O` [Tadalafil], for which the transfection efficiency turned out to be 1.04 ± 0.22.
For `O=c1c(O[C@@H]2O[C@H](CO)[C@@H](O)[C@H](O)[C@H]2O)c(-c2ccc(O)c(O)c2)oc2cc(O)cc(O)c12` [Isoquercitrin], the transfection efficiency was found to be 1.2 ± 0.082.

Values taken from the supplement of paper PMC7238544.
